These results are taken from PubChem BioAssay AID1671190 (National Center for Advancing Translational Sciences (NCATS), 2021).

Sequences of proteins named here, by UniProt entry; tags and fusion partners are left off. A change or cut given only in a name is not applied to a line headed by its entry.
UniProt P18054: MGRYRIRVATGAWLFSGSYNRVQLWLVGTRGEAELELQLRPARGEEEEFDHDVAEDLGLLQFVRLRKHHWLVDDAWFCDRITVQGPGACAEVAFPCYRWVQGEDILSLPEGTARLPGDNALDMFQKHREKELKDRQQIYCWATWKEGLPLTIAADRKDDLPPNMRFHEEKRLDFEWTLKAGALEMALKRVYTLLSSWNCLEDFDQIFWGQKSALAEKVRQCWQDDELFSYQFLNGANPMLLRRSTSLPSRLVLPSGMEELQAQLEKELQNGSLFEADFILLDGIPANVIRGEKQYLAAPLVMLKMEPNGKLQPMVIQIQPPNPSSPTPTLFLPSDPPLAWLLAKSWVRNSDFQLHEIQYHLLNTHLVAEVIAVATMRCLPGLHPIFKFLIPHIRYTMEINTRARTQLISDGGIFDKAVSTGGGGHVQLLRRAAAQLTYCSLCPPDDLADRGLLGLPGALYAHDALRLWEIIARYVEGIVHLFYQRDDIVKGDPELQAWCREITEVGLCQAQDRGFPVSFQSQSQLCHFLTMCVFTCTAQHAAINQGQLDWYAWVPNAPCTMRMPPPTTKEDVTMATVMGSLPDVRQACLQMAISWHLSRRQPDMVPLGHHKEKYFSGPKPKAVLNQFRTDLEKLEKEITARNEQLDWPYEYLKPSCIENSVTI

Screen size: about 580,000 compounds; about 6,100 (1.1%) were called active. Another 15% or so got no clear call; they are omitted. Calls come from the whole dose curve; as a rule, active = well fitted inhibition curve with a large enough effect; inconclusive = small, poorly fitted or top-dose-only effect, or another doubt; inactive = no such curve, though single readings can be large or run the other way. Only a part is listed here, and it is no random draw. Entries without a call were filed so in the source.
% is set by controls: 0 for no effect and ±100 for the full control effect; potency is the fitted concentration of half-maximal effect.

This assay has as its target Polyunsaturated fatty acid lipoxygenase ALOX12 (Homo sapiens) (UniProt P18054). The assay is described as follows: Primary qHTS assay for inhibitors of human arachidonate 12S-lipoxygenase (ALOX12): Round 2. As to conditions: purified 12hLO, xylenol orange hydroperoxide absorbance; activity change, negative = inhibition: at 0.00344 µM unless noted. An outline of the steps: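 Purified human 12hLO (150 nM final) in 25 mM Hepes, 0.01% Triton X-100, pH 7.0 was preincubated 15 min at room temperature with compound. Then 40 uM arachidonic acid was added, 30 min. Hydroperoxide was read by Fe-XO absorbance ratio 573/405 nm.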
`CC1(C)S[C@@H]2[C@H](NC(=O)Cc3ccccc3)C(=O)N2[C@H]1C(=O)O` (tested in a mixture with another compound): the activity change, negative = inhibition was found to be 51.1%. As for `NC(=O)NS(=O)(=O)c1ccc(Cl)cc1`, the activity change, negative = inhibition was determined as 45.8%. With `C[N+](C)(C)CC[N+]1(C)Cc2c(Cl)c(Cl)c(Cl)c(Cl)c2C1`, the activity change, negative = inhibition was 1.03%. Regarding `O=C(N/N=C\C=C\c1ccco1)c1cc(-c2ccc3ccccc3c2)n[nH]1`, the Potency is active: 39.8 µM. Still for that read-out and setting: the same measure for `Cc1ccccc1OCC(=O)OCC(=O)Nc1ncc(Cl)c(C)c1Cl`: active: 8.91 µM. With `Nc1nc(=S)c2[nH]cnc2[nH]1`, the activity change, negative = inhibition was 1.87%. Consider `COc1cc(C(=O)NC(=S)NC(C)C)cc(OC)c1OC`, for which the Potency was active: 35.5 µM.

Regarding `CC(=O)[C@]1(O)Cc2c(O)c3c(c(O)c2[C@@H](O[C@H]2C[C@H](N)[C@H](O)[C@H](C)O2)C1)C(=O)c1ccccc1C3=O`, the activity change, negative = inhibition came to 14.1%. The same measure, in the same setting: the same measure for `COc1ccc(C2CNC(=O)C2)cc1OC1CCCC1` (stereo unspecified): -15.7%.

As to `CC(=O)O[C@@H]1CC2C3CCc4cc(OC(=O)c5ccccc5)ccc4C3CCC2(C)[C@H]1OC(C)=O` (stereo partly specified), the activity change, negative = inhibition was -2.09%. On to `CC[C@@H](NC(=O)[C@@H](Cc1ccccc1)NC(=O)CC[C@H]1O[C@@H](n2ccc(=O)[nH]c2=O)[C@H](O)[C@@H]1O)c1ccccc1`, for which the Potency is active: 31.6 µM. Still for that read-out and setting: the same measure for `COc1cccc(CC(=O)N2CCC3(CC2)NC(=O)N(c2cccc(Cl)c2)N3)c1`: active: 1.41 µM; for `COc1ccccc1CNS(=O)(=O)c1cc(CN2C(=O)c3cccnc3C2=O)ccc1OC`: active: 35.5 µM.

For the compound `CN1C[C@H]2c3ccccc3Oc3ccc(Cl)cc3[C@@H]2C1`, the activity change, negative = inhibition was determined as 9.1%.

On to `c1ccc([C@H]2CN3CCSC3=N2)cc1`, for which the activity change, negative = inhibition is 25.5%. Take `CCOC(=O)N1CCC(n2c(=O)[nH]c3cc(Cl)ccc32)CC1`: the activity change, negative = inhibition turned out to be 2.62%. As for `O=C(Nc1ccc(Oc2ccc(Cl)cc2)c(Cl)c1)c1cc(I)cc(I)c1O`, the activity change, negative = inhibition was determined as 49.9%. Turning to `CCOC(=O)[C@H](CCc1ccccc1)N[C@H]1CS[C@H](c2cccs2)CN(CC(=O)O)C1=O`, the activity change, negative = inhibition worked out at 11.1%.

Regarding `Cc1ccc(O)cc1`, the activity change, negative = inhibition amounted to 52%. `Cc1cc(C)nc(/N=c2/ssnc2Cl)c1`: the Potency is active: 8.91 µM. Take `Cc1ccc(CN2CCN(C(=O)c3cccc4ccccc34)CC2)cc1`: the Potency was active: 1.26 µM. Regarding `Clc1cccc(C(c2ccc3nc[nH]c3c2)n2ccnc2)c1` (stereo unspecified), the activity change, negative = inhibition was -14.5%. Regarding `O=C(O)C(c1c[nH]c2cc(Cl)ccc12)N1CCN(CCOc2ccc(Cl)cc2)CC1` (stereo unspecified), the Potency was active: 35.5 µM.

As to `CC(C)NCC(O)c1ccc2ccccc2c1` (stereo unspecified), the activity change, negative = inhibition worked out at 2.68%. As to `Cc1nc(NCc2ccc3c(c2)OCO3)c2oc3ccccc3c2n1`, the Potency is active: 22.4 µM. Turning to `N=C(N)c1ccc2cc(OC(=O)c3ccc(N=C(N)N)cc3)ccc2c1`, the activity change, negative = inhibition amounted to 20.1%.

Take `Cc1cccc(C)c1NC(=S)NC(=O)c1cccc(Cl)c1`: the Potency is active: 31.6 µM. Take `CC(C)=CCC/C(C)=C/CO`: the activity change, negative = inhibition was -5.73%. With `COC(=O)Nc1nc2ccc(S(=O)c3ccccc3)cc2[nH]1` (stereo unspecified), the activity change, negative = inhibition was 19.5%. As for `CCn1cc(C(=O)O)c(=O)c2cc3c(cc21)OCO3`, the activity change, negative = inhibition is -2.24% [at 0.00147 µM]. On to `Cc1cc(=O)oc2cc(O[C@@H]3SC[C@@H](O)[C@H](O)[C@H]3O)ccc12`, for which the activity change, negative = inhibition is -3.83%.

As for `CC(=O)NCCNc1ncncc1-c1ccc(N(C)C)cc1`, the Potency is active: 44.7 µM. On to `O=C1CC2(CCCC2)CC(=O)N1CCCCN1CCN(c2ncccn2)CC1`, for which the activity change, negative = inhibition is 27%. For the compound `Cc1ccc2ccc(Cl)cc2n1`, the activity change, negative = inhibition is -13.1%.

On to `O=c1cc[nH]c(=S)[nH]1`, for which the activity change, negative = inhibition was -28.9%. In the case of `CC(C)(C)C1CCC(CC2=C(O)c3ccccc3C(=O)C2=O)CC1` (stereo unspecified), the activity change, negative = inhibition was found to be 14.6%. Take `CC(C1CC2CCC1C2)n1c(-c2cccs2)n[nH]c1=S` (stereo unspecified): the Potency was active: 44.7 µM.

As to `COC(=O)c1ccc(O)cc1`, the activity change, negative = inhibition is -6.59%. With `C[C@@H]1C[C@H]2[C@@H]3C[C@H](F)C4=CC(=O)C(Cl)=C[C@]4(C)[C@@]3(F)[C@@H](O)C[C@]2(C)[C@@]1(O)C(=O)CO`, the activity change, negative = inhibition was -44.5%. For the compound `O=C(/C=C/c1ccc(-c2ccccc2Cl)o1)c1ccccc1Br`, the Potency is active: 4.47 µM.

Take `N#C/C(=C/c1ccc(N2CCOCC2)o1)c1ccc(Cl)cc1`: the Potency is active: 7.94 µM. Take `CCN(C)C(=O)Oc1cccc([C@H](C)N(C)C)c1`: the activity change, negative = inhibition amounted to 18.7%. `O=C(NCC1CN(c2ccc(N3CCOCC3=O)cc2)C(=O)O1)c1ccc(Cl)s1` (stereo unspecified): the activity change, negative = inhibition stood at 19.7%.

Take `C=CCSc1nc2sc3c(c2c(=O)n1CC)CCc1ccccc1-3`: the Potency was active: 7.08 µM. In the case of `COC(=O)C(c1ccccc1Cl)N1CCc2sccc2C1` (stereo unspecified), the activity change, negative = inhibition is -18.4%. Take `CC1(C)C(c2ccccc2)=NC(c2ccc(Br)cc2)N1O` (stereo unspecified): the Potency was active: 7.94 µM. Regarding `CCOCC(O)COc1ccc(NC(=O)CC[S+](C)C)cc1` (stereo unspecified), the activity change, negative = inhibition is -2.59%.

`CCOc1ccccc1O[C@H](c1ccccc1)[C@H]1CNCCO1`: the activity change, negative = inhibition came out at 6.64%. The same measure, in the same setting: the same measure for `O=S(=O)(O)c1ccc2nc(-c3ccccc3)[nH]c2c1`: -34.9%. In the case of `CC(C)n1c(CSCc2ccc(Cl)cc2Cl)n[nH]c1=S`, the Potency is active: 44.7 µM. Consider `Cc1ccc(C(NC(=O)C2CCN(CCOc3ccc(Cl)cc3Cl)CC2)c2ccccn2)cc1` (stereo unspecified), for which the Potency was active: 56.2 µM.
